Measurements published in patent US4536518A, “Antidepressant derivatives of cis-4-phenyl-1,2,3,4-tetrahydro-1-naphthalenamine” (priority 1979, dated 1985).
Where a name gives a salt, the structure may show the parent alone.

Tested on: Synaptosomal Uptake of Serotonin (5HT), rat corpus striatum
Test: Blockade of synaptosomal uptake of serotonin (5HT) in vitro
Type: biochemical, rat (Sprague-Dawley CD)
Conditions: brain synaptosomes
Method: Sprague-Dawley CD male rats weighing 180-220 g. (Charles River Laboratories, Inc.; Wilmington, Mass.) were used in this procedure. A crude synaptosomal fraction of rat corpus striatum (for 5HT and DA uptake) or hypothalmus (for NE uptake) tissue was prepared by homogenizing tissue (25 ml./g. wet) in ice-cold 0.32M sucrose containing 1 mg./ml. glucose, 0.0001M EDTA and tris(hydroxymethyl)aminomethane to pH 7.4. The homogenate was centrifuged at 1000 × g for 10 min. at 0°-4° C., the pellet discarded and the supernatant centrifuged at 17,000 × g for 20 min. at 0°-4° C. The resulting pellet was resuspended in the ice-cold 0.32M sucrose pH 7.4 solution at 10 ml./g. original tissue (wet) for corpus striatum and 5 ml./g. original tissue (wet) for hypothalmus. […] After incubation, the mixtures were filtered through 0.45 micron Millipore filters and the filters washed with the incubation buffer. […] Uptake was calculated as picomoles 5HT, DA or NE per mg. protein (protein was determined by measurement with Folin phenol reagent).

Structure (SMILES)	IC50 (5HT) / IC50 (NE)
CN[C@H]1CC[C@@H](c2ccccc2)c2ccccc21 (relative stereo) [Comparative Example, Cis(1S) (1R)N--methyl-4-phenyl-1,2,3,4-tetrahydro-1-naphthalenamin hydrochloride, reference compound]	1.8
CN[C@@H]1CC[C@H](c2cccc(C(F)(F)F)c2)c2ccccc21 (relative stereo) [Example 11, Cis-N-methyl-4-(3-trifluoromethyl-phenyl)-1,2,3,4-tetrahydro-1-naphthalenamine]	0.10
CN[C@H]1CC[C@@H](c2ccc(Cl)cc2)c2ccc(Cl)cc21 (relative stereo) [Example 15, Cis-(1S)(1R)-N-methyl-4-(4-chlorophenyl)-7-chloro-1,2,3,4-tetrahydro-1-naphthalenamine Hydrochloride]	0.14
CN[C@H]1CC[C@@H](c2ccc(Br)cc2)c2ccccc21 (relative stereo) [Example 16, Cis-(1S)(1R)-N-methyl-4-(4-bromophenyl)-1,2,3,4-tetrahydro-1-naphthalenamine Hydrochloride]	0.14
CN[C@H]1CC[C@@H](c2ccccc2OC)c2ccccc21 (relative stereo) [Example 18]	1.8
CN[C@H]1CC[C@@H](c2cccc(OC)c2)c2ccccc21 (relative stereo) [Example 19]	5.4
CN[C@H]1CC[C@@H](c2ccc(Cl)cc2)c2ccc(OC)cc21 (relative stereo) [Example 21, Cis-(1S) (1R)-N-methyl-4-(4-chlorophenyl)-7-methoxy-1,2,3,4-tetrahydro-1-naphthalenamine Hydrochloride]	0.40
CN(C)[C@H]1CC[C@@H](c2cccc(C(F)(F)F)c2)c2ccccc21 (relative stereo) [Example 22, Cis-(1S)(1R)-N,N-dimethyl-4-(3-trifluoromethylphenyl)-1,2,3,4-tetrahydro-1-naphthalenamine Maleate]	0.21
